Test results taken from patent EP0036153A1, “1,1-Diphenyl-2-(1,2,4-triazol-1-yl)-ethan-1-oles as antimycotic agents” (BASF Aktiengesellschaft, priority 1980, dated 1981).
The name of at least one read-out is uncertain.

Tested on: Candida albicans
Test: Experimental candidosis of the mouse by Candida albicans (survival after oral treatment)
Assay type: in vivo, Maus
Details: groups of 10 mice
[1] = 2 x tgl. 100 mg/kg oral for 4 days

| SMILES | Anzahl der überlebenden Tiere am 1. Tag post infectionem [1] | Anzahl der überlebenden Tiere am 2. Tag post infectionem [1] | Anzahl der überlebenden Tiere am 3. Tag post infectionem [1] | Anzahl der überlebenden Tiere am 4. Tag post infectionem [1] | Anzahl der überlebenden Tiere am 5. Tag post infectionem [1] | Anzahl der überlebenden Tiere am 6. Tag post infectionem [1] | Anzahl der überlebenden Tiere am 7. Tag post infectionem [1] | Anzahl der überlebenden Tiere am 8. Tag post infectionem [1] | Anzahl der überlebenden Tiere am 9. Tag post infectionem [1] | Anzahl der überlebenden Tiere am 10. Tag post infectionem [1] | Anzahl der überlebenden Tiere am 1. Tag post infectionem (2 x tgl. 21,5 mg/kg for 4 days) | Anzahl der überlebenden Tiere am 2. Tag post infectionem (2 x tgl. 21,5 mg/kg for 4 days) | Anzahl der überlebenden Tiere am 3. Tag post infectionem (2 x tgl. 21,5 mg/kg for 4 days) | Anzahl der überlebenden Tiere am 4. Tag post infectionem (2 x tgl. 21,5 mg/kg for 4 days) | Anzahl der überlebenden Tiere am 5. Tag post infectionem (2 x tgl. 21,5 mg/kg for 4 days) | Anzahl der überlebenden Tiere am 6. Tag post infectionem (2 x tgl. 21,5 mg/kg for 4 days) | Anzahl der überlebenden Tiere am 7. Tag post infectionem (2 x tgl. 21,5 mg/kg for 4 days) | Anzahl der überlebenden Tiere am 8. Tag post infectionem (2 x tgl. 21,5 mg/kg for 4 days) | Anzahl der überlebenden Tiere am 9. Tag post infectionem (2 x tgl. 21,5 mg/kg for 4 days) | Anzahl der überlebenden Tiere am 10. Tag post infectionem (2 x tgl. 21,5 mg/kg for 4 days) | also measured |
| --- | --- | --- | --- | --- | --- | --- | --- | --- | --- | --- | --- | --- | --- | --- | --- | --- | --- | --- | --- | --- | --- |
| OC(Cn1cncn1)(c1ccccc1)c1ccc(Cl)cc1Cl (stereo not shown) [Beispiel 11, 1-Phenyl-1-(2,4-dichlorphenyl)-2-(1.2.4-triazol-1-yl)--äthan-1-ol-nitrat] | 10 | 10 | 10 | 10 | 10 | 10 | 10 | 9 | 9 | 9 | 10 | 10 | 10 | 10 | 10 | 10 | 10 | 9 | 9 | 9 | Anzahl der überlebenden Tiere am 1. Tag post infectionem (2 x tgl. 46,4 mg/kg for 4 days): 10; Anzahl der überlebenden Tiere am 2. Tag post infectionem (2 x tgl. 46,4 mg/kg for 4 days): 10; Anzahl der überlebenden Tiere am 3. Tag post infectionem (2 x tgl. 46,4 mg/kg for 4 days): 10; Anzahl der überlebenden Tiere am 4. Tag post infectionem (2 x tgl. 46,4 mg/kg for 4 days): 10; Anzahl der überlebenden Tiere am 5. Tag post infectionem (2 x tgl. 46,4 mg/kg for 4 days): 10; Anzahl der überlebenden Tiere am 6. Tag post infectionem (2 x tgl. 46,4 mg/kg for 4 days): 10; Anzahl der überlebenden Tiere am 7. Tag post infectionem (2 x tgl. 46,4 mg/kg for 4 days): 10; Anzahl der überlebenden Tiere am 8. Tag post infectionem (2 x tgl. 46,4 mg/kg for 4 days): 10; Anzahl der überlebenden Tiere am 9. Tag post infectionem (2 x tgl. 46,4 mg/kg for 4 days): 9; Anzahl der überlebenden Tiere am 10. Tag post infectionem (2 x tgl. 46,4 mg/kg for 4 days): 9 |
| OC(Cn1cncn1)(c1cccc(Cl)c1)c1ccc(Cl)cc1Cl (stereo not shown) [Beispiel 15, 1-(3-Chlorphenyl)-1-(2,4-dichlorphenyl)-2-(1.2.4-triazol-1-yl)-äthan-1-ol] | 10 | 10 | 10 | 10 | 10 | 10 | 9 | 9 | 8 | 8 | – | – | – | – | – | – | – | – | – | – | – |
| Clc1ccccc1C(c1ccccc1)(c1ccccc1)n1ccnc1 [Clotrimazol, 1-(o-Chlor-α,α-diphenyl-benzyl)-imidazol, reference compound] | 10 | 10 | 10 | 9 | 8 | 6 | 5 | 5 | 4 | 3 | 10 | 10 | 9 | 5 | 5 | 3 | 2 | 2 | 0 | 0 | Anzahl der überlebenden Tiere am 1. Tag post infectionem (2 x tgl. 46,4 mg/kg for 4 days): 10; Anzahl der überlebenden Tiere am 2. Tag post infectionem (2 x tgl. 46,4 mg/kg for 4 days): 10; Anzahl der überlebenden Tiere am 3. Tag post infectionem (2 x tgl. 46,4 mg/kg for 4 days): 9; Anzahl der überlebenden Tiere am 4. Tag post infectionem (2 x tgl. 46,4 mg/kg for 4 days): 8; Anzahl der überlebenden Tiere am 5. Tag post infectionem (2 x tgl. 46,4 mg/kg for 4 days): 8; Anzahl der überlebenden Tiere am 6. Tag post infectionem (2 x tgl. 46,4 mg/kg for 4 days): 7; Anzahl der überlebenden Tiere am 7. Tag post infectionem (2 x tgl. 46,4 mg/kg for 4 days): 6; Anzahl der überlebenden Tiere am 8. Tag post infectionem (2 x tgl. 46,4 mg/kg for 4 days): 6; Anzahl der überlebenden Tiere am 9. Tag post infectionem (2 x tgl. 46,4 mg/kg for 4 days): 4; Anzahl der überlebenden Tiere am 10. Tag post infectionem (2 x tgl. 46,4 mg/kg for 4 days): 3 |
